Experimental data published in paper PMC7401386.
These are yes or no findings as the source states them, for the method shown. In cells and extracts the contact can be indirect. Where a sequence is shown, tags or fusion partners need not be part of it.

Target: T1, Calcium- and integrin-binding protein 1, PA-tagged (mouse) (UniProt Q9Z0F4)
T1 sequence: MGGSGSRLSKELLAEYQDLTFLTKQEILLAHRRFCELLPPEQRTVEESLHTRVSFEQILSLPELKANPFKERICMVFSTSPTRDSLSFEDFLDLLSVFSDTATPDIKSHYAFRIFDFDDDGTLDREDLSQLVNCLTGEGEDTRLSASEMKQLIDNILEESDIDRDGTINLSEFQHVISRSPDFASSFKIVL
Experiment: co-IP; co-expression in HEK293T cells; immunoprecipitation with rat anti-PA antibody; immunoblot with anti-PA and anti-FLAG

binding: no binding
B1: CIB4, FLAG-tagged (protein, UniProt Q9D9N5 1-185)
chain: MGQCLRYQMQWEDLEEYQALTFLTRNEILCIHDTFLKLCPSGKHYKEATLTMDQVSSLPALRVNPFRDRICRVFSHDNVFSFEDVLGMASVFSEQACPSLKIEYAFRIYDFNENGFIDEEDLEEIVLRLLKSDDASEDLLMDVMHHVLSESDLDNDSMLSFSEFEHAMAKSPDFMNSFRIHFWGC
